We go through 76 sequences from article PMC7862700.

Only a part is listed here, and it is no random draw. For some assays here: At the low end of the ranking the order means little. Some of the results follow. For some assays here: The source does not settle which construct or isoform was used.

One assay deals with T1, ETS1 (UniProt P14921).
T1 sequence: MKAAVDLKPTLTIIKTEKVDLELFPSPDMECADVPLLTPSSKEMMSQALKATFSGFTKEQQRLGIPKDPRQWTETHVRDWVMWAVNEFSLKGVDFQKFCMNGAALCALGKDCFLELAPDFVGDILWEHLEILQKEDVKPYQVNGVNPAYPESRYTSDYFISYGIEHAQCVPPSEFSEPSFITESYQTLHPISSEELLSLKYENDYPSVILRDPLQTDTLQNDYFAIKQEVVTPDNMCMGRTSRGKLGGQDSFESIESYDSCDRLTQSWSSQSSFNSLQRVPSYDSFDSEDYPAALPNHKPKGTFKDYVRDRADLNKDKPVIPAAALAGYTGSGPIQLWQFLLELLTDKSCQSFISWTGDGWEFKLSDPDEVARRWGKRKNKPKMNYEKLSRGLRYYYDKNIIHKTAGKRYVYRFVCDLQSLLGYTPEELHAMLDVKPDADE
Kind of assay: DAPPL (digital affinity profiling via proximity ligation, sequencing). The conditions noted are these: 10 mM Tris-HCl pH 7.5, 50 mM NaCl, 1 mM DTT, 4% glycerol, room temperature, 30 min; GST-TFs on glutathione beads, 16-mer random dsDNA library, 0.1% …; high values mean tight binding; double strand, one strand shown; scale: fold enrichment (6-mer frequency, TF over GST control).

The target in another assay is T2, SPDEF (UniProt O95238).
T2 sequence: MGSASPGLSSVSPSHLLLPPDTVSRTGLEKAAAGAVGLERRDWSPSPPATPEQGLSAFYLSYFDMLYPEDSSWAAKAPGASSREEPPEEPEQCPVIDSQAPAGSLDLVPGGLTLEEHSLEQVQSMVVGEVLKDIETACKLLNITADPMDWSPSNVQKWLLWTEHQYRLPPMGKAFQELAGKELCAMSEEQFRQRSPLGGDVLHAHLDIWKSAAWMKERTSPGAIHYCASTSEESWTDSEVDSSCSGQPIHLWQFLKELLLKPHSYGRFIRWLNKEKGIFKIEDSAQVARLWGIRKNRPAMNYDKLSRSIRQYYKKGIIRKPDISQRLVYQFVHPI
Described as above. The conditions noted are these: 10 mM Tris-HCl pH 7.5, 50 mM NaCl, 1 mM DTT, 4% glycerol, room temperature, 30 min; GST-TFs on glutathione beads, 16-mer random dsDNA library, 0.1% …; high values mean tight binding; double strand, one strand shown; scale: fold enrichment (6-mer frequency, TF over GST control).

Take TGCCTA: the figures for the binding signal in the assay with ETS1 and with SPDEF were 1.11 and 1.03, respectively.

As for AGCTGC, the binding signal in the assay with ETS1 was 0.989; with SPDEF, 0.98.

Consider CCTTCG, for which the binding signal was 1.5 with ETS1 and 1.33 with SPDEF.

Take TTGTGC: the binding signal with ETS1 is 1.16; with SPDEF it was 1.15.

Consider CTGCGG, for which the binding signal in the assay with ETS1 is 1.1; with SPDEF it was 0.983.

Turning to CTTGAA, the binding signal with ETS1 worked out at 1.1; with SPDEF, 1.13.

Turning to GACTGC, the values for the binding signal with ETS1 and with SPDEF were 0.944 and 0.857, respectively.

For the sequence CGCCCA, the binding signal was determined as 1.04 with ETS1 and 0.956 with SPDEF.

Consider CTGTCC, for which the binding signal was 1.33 in the assay with ETS1 and 1.27 with SPDEF.

In the case of TGGCCA, the binding signal amounted to 1.09 in the assay with ETS1 and 0.894 with SPDEF.

AAGACT: the binding signal came out at 1.07 with ETS1 and 0.951 in the assay with SPDEF.

Regarding TTGAAA, the binding signal with ETS1 was found to be 1.22; in the assay with SPDEF, 1.07.

Take TTGTTG: the binding signal turned out to be 1.03 in the assay with ETS1 and 1.11 with SPDEF.

As for ATAGGC, the binding signal with ETS1 came to 0.953; in the assay with SPDEF, 0.976.

On to ATCAAC, for which the figures for the binding signal with ETS1 and with SPDEF were 1.13 and 1.06, respectively.

Regarding GACTTC, the binding signal amounted to 2.35 with ETS1 and 2.13 with SPDEF.

For AGCTTG, the binding signal with ETS1 is 0.981; with SPDEF, 0.831.

As to CCTTGT, the binding signal with ETS1 is 1.35; with SPDEF it was 1.37.

On to CGTCAT, for which the values for the binding signal with ETS1 and in the assay with SPDEF were 0.962 and 0.984, respectively.

As for CGTAAC, the values for the binding signal with ETS1 and with SPDEF were 1.15 and 1.17, respectively.

AATATA: the binding signal was determined as 1.4 in the assay with ETS1 and 1.23 with SPDEF.

GCATAC: the binding signal in the assay with ETS1 was found to be 0.985; with SPDEF it was 0.984.

As to CTGGGC, the results for the binding signal with ETS1 and with SPDEF were 1.14 and 1, respectively.

For CACTAT, the results for the binding signal in the assay with ETS1 and with SPDEF were 1.21 and 1.18, respectively.

On to AATCAC, for which the binding signal was 1.15 in the assay with ETS1 and 1.05 with SPDEF.

For TCCGCG, the binding signal stood at 1.3 with ETS1 and 1.4 with SPDEF.

For GCGCTT, the binding signal with ETS1 came to 1.21; with SPDEF, 1.2.

In the case of TTCGGC, the binding signal with ETS1 came to 1.12; in the assay with SPDEF, 0.927.

Turning to CATTCA, the binding signal in the assay with ETS1 was determined as 1.16; in the assay with SPDEF, 0.986.

TGATCG: the figures for the binding signal in the assay with ETS1 and in the assay with SPDEF were 0.985 and 0.914, respectively.

Turning to ACTTGG, the binding signal was found to be 1.25 with ETS1 and 1.21 with SPDEF.

On to TTAGGC, for which the binding signal with ETS1 came out at 0.865; with SPDEF it was 0.996.

Turning to CCGAGC, the binding signal with ETS1 is 1.1; in the assay with SPDEF, 1.06.

With CACCCC, the binding signal in the assay with ETS1 stood at 1.29; with SPDEF, 1.24.

Take TGCATG: the binding signal with ETS1 came to 1.04; in the assay with SPDEF it was 1.06.

GTGTTT: the binding signal came out at 1.19 with ETS1 and 1.22 with SPDEF.

As for CTACCA, the binding signal in the assay with ETS1 worked out at 1.27; in the assay with SPDEF, 1.23.

As for AGTCTC, the binding signal with ETS1 is 1.03; in the assay with SPDEF it was 0.953.

As to AACTGG, the figures for the binding signal with ETS1 and in the assay with SPDEF were 1.31 and 1.23, respectively.

On to CAAGCC, for which the binding signal with ETS1 stood at 1.03; with SPDEF it was 0.865.

For the sequence CATCGC, the binding signal was determined as 1.12 with ETS1 and 0.992 with SPDEF.

For the sequence AAATAA, the binding signal stood at 1.31 with ETS1 and 1.25 with SPDEF.

ATCAGA: the binding signal is 0.939 in the assay with ETS1 and 0.937 in the assay with SPDEF.

Consider TAGGAA, for which the binding signal was 1.12 in the assay with ETS1 and 1.11 with SPDEF.

As to CCATCA, the binding signal with ETS1 came to 1.16; with SPDEF, 1.12.

Take TGTTCG: the figures for the binding signal in the assay with ETS1 and in the assay with SPDEF were 1.04 and 1.03, respectively.

As to TGATAG, the binding signal with ETS1 stood at 0.93; with SPDEF, 0.936.

GTATAC: the binding signal amounted to 1.28 in the assay with ETS1 and 1.3 with SPDEF.

For AATATT, the binding signal with ETS1 amounted to 1.28; with SPDEF, 1.25.

With TGTTGC, the binding signal amounted to 1.25 with ETS1 and 1.33 with SPDEF.

With TACTAT, the binding signal with ETS1 was 1.34; in the assay with SPDEF, 1.37.

As for TCAAAA, the binding signal in the assay with ETS1 was 1.16; with SPDEF, 1.06.

As for GGCTCG, the binding signal worked out at 1.05 with ETS1 and 0.956 in the assay with SPDEF.

For TATCCA, the binding signal amounted to 1.31 in the assay with ETS1 and 1.21 with SPDEF.

Take CTACCC: the binding signal with ETS1 stood at 1.37; with SPDEF, 1.29.

Take TGCACA: the figures for the binding signal in the assay with ETS1 and with SPDEF were 1.06 and 1.21, respectively.

Take ATAAAG: the binding signal with ETS1 turned out to be 1.1; with SPDEF, 0.984.

Consider TCTGAA, for which the binding signal worked out at 1.19 with ETS1 and 1.23 with SPDEF.

On to CACACC, for which the binding signal is 1.05 in the assay with ETS1 and 1.02 in the assay with SPDEF.

Consider GCGTAT, for which the binding signal came out at 0.981 in the assay with ETS1 and 0.998 in the assay with SPDEF.

Turning to ACAAAG, the values for the binding signal with ETS1 and with SPDEF were 1.03 and 0.977, respectively.

On to TAGCTG, for which the binding signal with ETS1 is 1.05; with SPDEF, 0.948.

For the sequence AGCTCG, the figures for the binding signal with ETS1 and in the assay with SPDEF were 1.06 and 0.935, respectively.

GCACGA: the figures for the binding signal with ETS1 and with SPDEF were 1.04 and 1, respectively.

For the sequence GGTCTG, the figures for the binding signal with ETS1 and with SPDEF were 0.976 and 0.992, respectively.

Consider ACGAAT, for which the binding signal with ETS1 is 1.11; with SPDEF it was 1.13.

As to TACCGG, the figures for the binding signal with ETS1 and with SPDEF were 1.52 and 1.77, respectively.

As for CCAAGC, the binding signal worked out at 0.97 in the assay with ETS1 and 0.982 with SPDEF.

On to CTCACC, for which the results for the binding signal with ETS1 and with SPDEF were 1.13 and 1.12, respectively.

As to GAAAAA, the binding signal was 1.21 with ETS1 and 0.988 with SPDEF.

Regarding GCAACA, the binding signal with ETS1 stood at 1; with SPDEF, 0.957.

In the case of TACGCG, the values for the binding signal with ETS1 and in the assay with SPDEF were 1.1 and 1.23, respectively.

Regarding CGCACG, the results for the binding signal with ETS1 and in the assay with SPDEF were 1.11 and 0.94, respectively.

Consider ACCGCC, for which the binding signal with ETS1 amounted to 1.39; with SPDEF it was 1.29.

Consider ACTCAT, for which the binding signal in the assay with ETS1 and with SPDEF was 1.24 throughout.

For CTTTAC, the binding signal with ETS1 was found to be 1.38; with SPDEF it was 1.35.
